Test results from patent publication US20090075320A1, “Method for screening an enhancer or a masker of salty taste” (priority 2006, published 2009).
For at least one compound, name, drawing or mass did not settle the structure.

Molecular target: T1, hENaC channel (Homo sapiens, UniProt P37088+P51168+P51170, A314G/A350T/D375G/F339S/S458R/Y369S)
T1 sequence (P37088 1-669): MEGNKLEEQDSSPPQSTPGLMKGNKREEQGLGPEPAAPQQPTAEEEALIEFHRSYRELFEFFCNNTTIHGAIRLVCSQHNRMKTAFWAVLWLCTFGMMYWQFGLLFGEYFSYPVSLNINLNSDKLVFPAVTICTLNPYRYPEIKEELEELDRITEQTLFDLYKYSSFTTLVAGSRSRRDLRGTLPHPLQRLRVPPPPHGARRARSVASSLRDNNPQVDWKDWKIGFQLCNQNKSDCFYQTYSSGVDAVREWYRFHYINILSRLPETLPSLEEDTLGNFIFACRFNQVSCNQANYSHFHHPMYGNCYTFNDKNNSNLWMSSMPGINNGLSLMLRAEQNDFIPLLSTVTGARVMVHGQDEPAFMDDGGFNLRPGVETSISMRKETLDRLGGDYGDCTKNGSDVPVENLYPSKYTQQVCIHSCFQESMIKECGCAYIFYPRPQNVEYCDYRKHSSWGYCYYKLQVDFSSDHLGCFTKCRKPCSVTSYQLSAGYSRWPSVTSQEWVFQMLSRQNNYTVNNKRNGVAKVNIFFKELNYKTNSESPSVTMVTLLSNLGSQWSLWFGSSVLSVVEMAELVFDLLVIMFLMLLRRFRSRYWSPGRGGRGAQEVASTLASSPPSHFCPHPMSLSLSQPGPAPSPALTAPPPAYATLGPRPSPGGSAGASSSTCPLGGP
T1 sequence (P51168 1-640 A314G): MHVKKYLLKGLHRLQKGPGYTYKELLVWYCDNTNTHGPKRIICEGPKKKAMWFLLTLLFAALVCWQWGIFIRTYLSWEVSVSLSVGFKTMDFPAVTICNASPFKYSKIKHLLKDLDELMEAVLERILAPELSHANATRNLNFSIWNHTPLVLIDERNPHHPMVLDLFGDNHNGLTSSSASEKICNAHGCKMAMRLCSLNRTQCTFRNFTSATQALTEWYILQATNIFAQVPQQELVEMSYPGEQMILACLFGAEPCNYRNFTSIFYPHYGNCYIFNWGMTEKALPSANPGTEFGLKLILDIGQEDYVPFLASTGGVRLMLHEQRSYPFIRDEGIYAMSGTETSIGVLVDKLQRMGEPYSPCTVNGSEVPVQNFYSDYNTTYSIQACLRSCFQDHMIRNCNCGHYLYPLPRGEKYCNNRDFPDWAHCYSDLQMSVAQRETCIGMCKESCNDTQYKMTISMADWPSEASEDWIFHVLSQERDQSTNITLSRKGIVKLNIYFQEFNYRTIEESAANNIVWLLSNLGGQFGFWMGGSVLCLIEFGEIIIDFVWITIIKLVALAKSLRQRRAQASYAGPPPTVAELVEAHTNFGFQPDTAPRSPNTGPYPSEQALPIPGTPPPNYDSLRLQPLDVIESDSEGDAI
T1 sequence (P51170 1-649 F339S/A350T/Y369S/D375G/S458R): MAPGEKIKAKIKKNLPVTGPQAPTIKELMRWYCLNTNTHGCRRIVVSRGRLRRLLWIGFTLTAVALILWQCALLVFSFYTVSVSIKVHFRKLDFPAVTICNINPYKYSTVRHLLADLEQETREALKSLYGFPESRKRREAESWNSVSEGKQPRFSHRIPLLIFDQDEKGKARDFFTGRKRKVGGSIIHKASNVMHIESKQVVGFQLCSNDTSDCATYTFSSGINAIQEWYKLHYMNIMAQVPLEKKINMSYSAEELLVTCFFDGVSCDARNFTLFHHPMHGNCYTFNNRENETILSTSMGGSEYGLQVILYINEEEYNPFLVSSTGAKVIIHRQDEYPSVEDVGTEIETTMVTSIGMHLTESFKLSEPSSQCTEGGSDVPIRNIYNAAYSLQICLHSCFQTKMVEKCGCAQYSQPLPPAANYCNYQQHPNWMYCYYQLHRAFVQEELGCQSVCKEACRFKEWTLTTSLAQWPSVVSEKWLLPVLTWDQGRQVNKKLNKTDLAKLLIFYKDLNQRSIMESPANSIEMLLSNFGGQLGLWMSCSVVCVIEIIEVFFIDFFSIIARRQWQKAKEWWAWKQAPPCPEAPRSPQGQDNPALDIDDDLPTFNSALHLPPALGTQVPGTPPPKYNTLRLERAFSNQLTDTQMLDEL
Test: Primary screen MP assay (membrane potential dye): dose-response curves for inhibition by hENaC blockers
Type: cell-based
Conditions: HEK293 Flp-In T-Rex hENaC cells (alpha, beta, gamma; pUR8191), loaded with MP-Blue dye for 1 hr, Flexstation; FIG. 4
Description: FIG. 4. Dose-response curve for different concentrations of the hENaC blockers amiloride, benzamil and phenamil (in M). Cells were loaded with MP-Blue dye for 1 hr and assayed in the Flexstation.
HEK293 Flp-In T-Rex hENaC cells were grown to about 80% confluency and dissociated from the culture dish with trypsin/EDTA for 1-5 minutes at 37° C. Dissociated cells were taken up in a concentration between 1×10^5 and 1×10^6 cells/ml in DMEM/Tet-free FCS/blasticidin/hygromycin medium. 100 μL of cells were added per well in a poly-L-lysine coated black well clear bottom 96-wells plate. The cells were grown overnight and then induced by addition of 100 μl DMEM/Tet-free FCS/blasticidin/hygromycin medium with doxycyclin (final conc. 0.25 μg/ml). Alternatively, in some wells amiloride was added to inhibit hENaC channel activity during induction.
After 20 to 48 hrs the medium was removed, cells were washed with buffer and subsequently loaded with MP-Blue (cat# R8042) or MP-Red (cat# R8123) dye (from Molecular Devices) according to the manufacturer's instructions for 1 hr at 37° C. The plates were subsequently loaded into the Flexstation II for fluorescence measurements. Compounds were added to the wells in different concentrations after a baseline measurement of 30 sec. […] The fluorescence values were normalized on the average value of the first five time points. […]

In the case of `NC(=NCc1ccccc1)NC(=O)c1nc(Cl)c(N)nc1N` [benzamil], the “inhibition of the hENaC channel (rank order from dose-response curves)” value is reported as “followed by benzamil”.
